PubChem BioAssay AID1259425, University of Nebraska Medical Center, 2018
Here is a random part of about 14,000 reagents tested. Further read-outs or replicates are left out here. Reagent sequences are not shown. Not stated in the record: the time to read-out.

Aim: 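Compare each knockdown with KSR1 silencing using changes in marker transcripts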 (primary screen)
System: HCT116 human colon cancer cells
Knock-down reagent: siRNA pool against human genes, 50 nM siRNA
Measurement: 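mRNA of six signature genes measured together by branched-DNA assay after 50 nM siRNA pool, blank removed, divided by geometric mean of two housekeeping genes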
Direction: BNIP3L mRNA: higher = more BNIP3L transcript after knockdown; NDRG1 mRNA: higher = more NDRG1 transcript after knockdown

{"gene symbol": "EBAG9", "PubChem SID": "SID363995215", "BNIP3L mRNA, set 1": 0.132, "NDRG1 mRNA, set 1": 0.17}
{"gene symbol": "AKT1S1", "PubChem SID": "SID364003955", "BNIP3L mRNA, set 1": 0.0813, "NDRG1 mRNA, set 1": 0.335}
{"gene symbol": "TBXAS1", "PubChem SID": "SID363992358", "BNIP3L mRNA, set 1": 0.0801, "NDRG1 mRNA, set 1": 0.0856}
{"gene symbol": "ZRANB2", "PubChem SID": "SID363996361", "BNIP3L mRNA, set 1": 0.0942, "NDRG1 mRNA, set 1": 0.117}
{"gene symbol": "SRGAP2", "PubChem SID": "SID364005248", "BNIP3L mRNA, set 1": 0.0741, "NDRG1 mRNA, set 1": 0.0963}
{"gene symbol": "CSN2", "PubChem SID": "SID363993104", "BNIP3L mRNA, set 1": 0.244, "NDRG1 mRNA, set 1": 0.327}
{"gene symbol": "TSKU", "PubChem SID": "SID363999544", "BNIP3L mRNA, set 1": 0.286, "NDRG1 mRNA, set 1": 0.387}
{"gene symbol": "PDLIM4", "PubChem SID": "SID363994762", "BNIP3L mRNA, set 1": 0.0872, "NDRG1 mRNA, set 1": 0.109}
{"gene symbol": "PRKX", "PubChem SID": "SID363995982", "BNIP3L mRNA, set 1": 0.0757, "NDRG1 mRNA, set 1": 0.0776}
{"gene symbol": "SESN2", "PubChem SID": "SID364003642", "BNIP3L mRNA, set 1": 0.103, "NDRG1 mRNA, set 1": 0.476}
{"gene symbol": "TIMM17A", "PubChem SID": "SID363997154", "BNIP3L mRNA, set 1": 0.133, "NDRG1 mRNA, set 1": 0.134}
{"gene symbol": "PLGRKT", "PubChem SID": "SID364001094", "BNIP3L mRNA, set 1": 0.0792, "NDRG1 mRNA, set 1": 0.108}
{"gene symbol": "ZFX", "PubChem SID": "SID363994518", "BNIP3L mRNA, set 1": 0.123, "NDRG1 mRNA, set 1": 0.749}
{"gene symbol": "TRPS1", "PubChem SID": "SID363998601", "BNIP3L mRNA, set 1": 0.0969, "NDRG1 mRNA, set 1": 0.0864}
{"gene symbol": "VEGFA", "PubChem SID": "SID363994488", "BNIP3L mRNA, set 1": 0.1, "NDRG1 mRNA, set 1": 0.0632}
{"gene symbol": "MID2", "PubChem SID": "SID363998148", "BNIP3L mRNA, set 1": 0.0779, "NDRG1 mRNA, set 1": 0.262}
{"gene symbol": "C1orf50", "PubChem SID": "SID364002746", "BNIP3L mRNA, set 1": 0.0988, "NDRG1 mRNA, set 1": 0.146}
{"gene symbol": "FBXL7", "PubChem SID": "SID363998216", "BNIP3L mRNA, set 1": 0.0629, "NDRG1 mRNA, set 1": 0.199}
{"gene symbol": "HBG2", "PubChem SID": "SID363991520", "BNIP3L mRNA, set 1": 0.084, "NDRG1 mRNA, set 1": 0.124}
{"gene symbol": "TRAF3", "PubChem SID": "SID363994419", "BNIP3L mRNA, set 1": 0.0789, "NDRG1 mRNA, set 1": 0.0503}
{"gene symbol": "UBP1", "PubChem SID": "SID363998919", "BNIP3L mRNA, set 1": 0.0955, "NDRG1 mRNA, set 1": 0.297}
{"gene symbol": "RIN3", "PubChem SID": "SID364003097", "BNIP3L mRNA, set 1": 0.128, "NDRG1 mRNA, set 1": 0.414}
{"gene symbol": "KLHDC8A", "PubChem SID": "SID364000873", "BNIP3L mRNA, set 1": 0.112, "NDRG1 mRNA, set 1": 0.266}
{"gene symbol": "CDKN2B", "PubChem SID": "SID363995880", "BNIP3L mRNA, set 1": 0.0634, "NDRG1 mRNA, set 1": 0.0626}

4 entries already listed, arranged by “NDRG1 mRNA, set 1”, ascending.
{"gene symbol": "TBXAS1", "PubChem SID": "SID363992358", "BNIP3L mRNA, set 1": 0.0801, "NDRG1 mRNA, set 1": 0.0856}
{"gene symbol": "SRGAP2", "PubChem SID": "SID364005248", "BNIP3L mRNA, set 1": 0.0741, "NDRG1 mRNA, set 1": 0.0963}
{"gene symbol": "ZRANB2", "PubChem SID": "SID363996361", "BNIP3L mRNA, set 1": 0.0942, "NDRG1 mRNA, set 1": 0.117}
{"gene symbol": "AKT1S1", "PubChem SID": "SID364003955", "BNIP3L mRNA, set 1": 0.0813, "NDRG1 mRNA, set 1": 0.335}

Further entries follow.
{"gene symbol": "RBPJ", "PubChem SID": "SID363996264", "BNIP3L mRNA, set 1": 0.0761, "NDRG1 mRNA, set 1": 0.496}
{"gene symbol": "APEX1", "PubChem SID": "SID363992866", "BNIP3L mRNA, set 1": 0.123, "NDRG1 mRNA, set 1": 0.183}
{"gene symbol": "TXN2", "PubChem SID": "SID363998345", "BNIP3L mRNA, set 1": 0.225, "NDRG1 mRNA, set 1": 0.445}
{"gene symbol": "TM2D3", "PubChem SID": "SID364003271", "BNIP3L mRNA, set 1": 0.079, "NDRG1 mRNA, set 1": 0.384}
{"gene symbol": "DDX27", "PubChem SID": "SID364000620", "BNIP3L mRNA, set 1": 0.227, "NDRG1 mRNA, set 1": 0.557}
{"gene symbol": "OR2B6", "PubChem SID": "SID363998262", "BNIP3L mRNA, set 1": 0.0991, "NDRG1 mRNA, set 1": 0.175}
{"gene symbol": "ATP6V0B", "PubChem SID": "SID363995057", "BNIP3L mRNA, set 1": 0.179, "NDRG1 mRNA, set 1": 0.754}
{"gene symbol": "STAM2", "PubChem SID": "SID363996718", "BNIP3L mRNA, set 1": 0.118, "NDRG1 mRNA, set 1": 0.0863}
{"gene symbol": "FAM13A", "PubChem SID": "SID363992313", "BNIP3L mRNA, set 1": 0.142, "NDRG1 mRNA, set 1": 0.21}
{"gene symbol": "LIM2", "PubChem SID": "SID364003396", "BNIP3L mRNA, set 1": 0.193, "NDRG1 mRNA, set 1": 0.325}
{"gene symbol": "ZNF451", "PubChem SID": "SID363999569", "BNIP3L mRNA, set 1": 0.0863, "NDRG1 mRNA, set 1": 0.0739}
{"gene symbol": "RCN3", "PubChem SID": "SID364001753", "BNIP3L mRNA, set 1": 0.162, "NDRG1 mRNA, set 1": 0.53}
